The text below walks through data of article PMC10621219.

The chains behind the UniProt entries cited, without tags or fusion partners.
UniProt P08670: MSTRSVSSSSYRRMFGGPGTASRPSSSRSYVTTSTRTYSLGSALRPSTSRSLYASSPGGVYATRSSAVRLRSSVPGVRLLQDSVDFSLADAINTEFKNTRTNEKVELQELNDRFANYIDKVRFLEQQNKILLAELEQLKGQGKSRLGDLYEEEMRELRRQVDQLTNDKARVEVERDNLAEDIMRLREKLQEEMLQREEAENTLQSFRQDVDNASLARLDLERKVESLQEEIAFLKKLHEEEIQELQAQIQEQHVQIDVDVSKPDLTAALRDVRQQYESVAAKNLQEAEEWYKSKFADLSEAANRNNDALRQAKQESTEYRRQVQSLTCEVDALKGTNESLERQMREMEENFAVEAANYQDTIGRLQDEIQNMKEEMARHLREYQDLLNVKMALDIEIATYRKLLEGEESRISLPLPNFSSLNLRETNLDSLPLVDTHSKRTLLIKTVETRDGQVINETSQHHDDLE

The target of the test is T1, Flag-tagged FAM171B (family with sequence similarity 171B), overexpressed in T24 cells (UniProt Q6P995).
T1 sequence: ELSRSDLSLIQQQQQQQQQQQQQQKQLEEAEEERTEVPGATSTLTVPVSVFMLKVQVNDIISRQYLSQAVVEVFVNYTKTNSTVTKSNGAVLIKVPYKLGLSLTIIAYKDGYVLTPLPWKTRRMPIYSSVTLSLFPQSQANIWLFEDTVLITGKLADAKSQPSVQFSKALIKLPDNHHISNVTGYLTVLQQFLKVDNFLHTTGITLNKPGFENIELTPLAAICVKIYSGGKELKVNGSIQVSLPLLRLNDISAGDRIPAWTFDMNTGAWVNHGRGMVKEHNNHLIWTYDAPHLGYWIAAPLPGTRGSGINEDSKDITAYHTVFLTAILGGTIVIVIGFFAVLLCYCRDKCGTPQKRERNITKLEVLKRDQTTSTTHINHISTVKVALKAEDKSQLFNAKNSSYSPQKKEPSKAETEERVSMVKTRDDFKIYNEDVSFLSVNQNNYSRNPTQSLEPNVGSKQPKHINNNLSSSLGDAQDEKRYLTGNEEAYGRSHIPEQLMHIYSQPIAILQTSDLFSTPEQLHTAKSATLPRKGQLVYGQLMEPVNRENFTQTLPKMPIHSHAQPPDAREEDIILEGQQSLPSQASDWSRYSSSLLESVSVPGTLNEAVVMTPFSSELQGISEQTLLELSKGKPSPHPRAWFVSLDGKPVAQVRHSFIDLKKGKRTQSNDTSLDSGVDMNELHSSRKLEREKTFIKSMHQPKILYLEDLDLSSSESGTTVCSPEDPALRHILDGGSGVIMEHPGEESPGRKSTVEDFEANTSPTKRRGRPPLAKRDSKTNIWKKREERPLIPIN
Kind of test: affinity purification with mass spectrometry; lysates of T24 cells overexpressing flag-tagged FAM171B and of control T24 cells incubated with Anti-DYKDDDDK beads at 4 °C for 4 h; denaturing elution; mass spectrometry of the eluate.

No constants are given. Whether binding was seen depends on the method and setting. Binding seen in cells or lysates may run through a third protein. Here binding means that the protein was enriched with, or labelled near, the bait; the list need not be complete. Where a sequence is shown, tags or fusion partners need not be part of it.

As to “vimentin, endogenous in T24 cells (from UniProt P08670 1-466)”, the binding entry is “binds”.
